Amino acid sequences for entries named in this document (tags omitted).
UniProt P35240: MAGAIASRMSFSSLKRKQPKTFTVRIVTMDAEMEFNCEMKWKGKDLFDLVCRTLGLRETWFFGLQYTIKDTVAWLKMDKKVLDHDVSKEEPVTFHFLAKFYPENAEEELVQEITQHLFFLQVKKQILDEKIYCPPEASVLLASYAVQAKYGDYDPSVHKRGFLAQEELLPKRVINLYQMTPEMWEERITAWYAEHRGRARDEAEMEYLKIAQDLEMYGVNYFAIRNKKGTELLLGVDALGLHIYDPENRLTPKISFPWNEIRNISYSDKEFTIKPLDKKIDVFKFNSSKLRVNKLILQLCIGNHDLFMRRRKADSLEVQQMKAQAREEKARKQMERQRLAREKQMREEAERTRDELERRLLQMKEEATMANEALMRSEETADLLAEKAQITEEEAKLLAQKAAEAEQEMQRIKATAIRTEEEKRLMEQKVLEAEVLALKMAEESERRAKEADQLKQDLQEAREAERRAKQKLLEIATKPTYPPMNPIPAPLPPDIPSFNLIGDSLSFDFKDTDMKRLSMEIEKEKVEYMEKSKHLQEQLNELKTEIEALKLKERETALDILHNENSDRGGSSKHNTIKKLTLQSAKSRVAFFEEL

According to article PMC11809420:

Biological target: Kidney and brain protein (KIBRA), endogenous (human (endogenous in HCC1954, TOV-112D, HEK-293T)) (UniProt Q8IX03)
Test: affinity purification with mass spectrometry; HCC1954 cell lysates incubated with IgG or KIBRA (1:100) antibodies 1 h, protein G beads 2 h at 4 °C, LC-MS/MS

| binding | Molecule |
| --- | --- |
| binds | Neurofibromin 2 (NF2), endogenous (from UniProt P35240 1-595) |
| binds | ZDHHC15, endogenous (enzyme, UniProt Q96MV8 1-337) MRRGWKMALSGGLRCCRRVLSWVPVLVIVLVVLWSYYAYVFELCLVTVLSPAEKVIYLILYHAIFVFFTWTYWKSIFTLPQQPNQKFHLSYTDKERYENEERPEVQKQMLVDMAKKLPVYTRTGSGAVRFCDRCHLIKPDRCHHCSVCAMCVLKMDHHCPWVNNCIGFSNYKFFLQFLAYSVLYCLYIATTVFSYFIKYWRGELPSVRSKFHVLFLLFVACMFFVSLVILFGYHCWLVSRNKTTLEAFCTPVFTSGPEKNGFNLGFIKNIQQVFGDKKKFWLIPIGSSPGDGHSFPMRSMNESQNPLLANEETWEDNEDDNQDYPEGSSSLAVETET |

These are yes or no findings as the source states them, for the method shown. Binding seen in cells or lysates may run through a third protein. Here binding means that the protein was enriched with, or labelled near, the bait; the list need not be complete.
